The record followed here is article PMC4751553.

Protein sequences, listed by entry. Tags and fused reporters are not part of them. Lines headed by an entry give the natural chain unless they say otherwise; changes in a name come on top.
UniProt Q05670: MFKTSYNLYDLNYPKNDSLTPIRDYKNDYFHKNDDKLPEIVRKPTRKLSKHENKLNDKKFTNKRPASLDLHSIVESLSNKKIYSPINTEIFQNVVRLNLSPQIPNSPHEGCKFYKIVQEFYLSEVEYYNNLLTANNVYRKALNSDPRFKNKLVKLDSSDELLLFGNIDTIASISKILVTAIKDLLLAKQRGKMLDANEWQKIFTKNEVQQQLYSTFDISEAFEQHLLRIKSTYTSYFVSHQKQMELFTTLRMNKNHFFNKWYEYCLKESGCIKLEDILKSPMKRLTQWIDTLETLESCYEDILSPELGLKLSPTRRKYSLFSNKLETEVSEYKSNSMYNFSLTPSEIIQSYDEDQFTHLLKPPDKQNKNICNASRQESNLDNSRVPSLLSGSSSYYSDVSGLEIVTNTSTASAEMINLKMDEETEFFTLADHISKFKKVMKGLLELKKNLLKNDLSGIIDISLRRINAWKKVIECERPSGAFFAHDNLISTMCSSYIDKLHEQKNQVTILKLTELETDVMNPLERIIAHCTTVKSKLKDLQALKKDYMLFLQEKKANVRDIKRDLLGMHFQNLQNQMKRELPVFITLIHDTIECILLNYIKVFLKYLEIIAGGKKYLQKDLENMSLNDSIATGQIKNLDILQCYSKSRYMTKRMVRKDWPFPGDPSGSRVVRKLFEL

The target of the assay is T1, Rvs161p tagged with an internal FLAG tag inserted after amino acid 85 (wild type) (S. cerevisiae) (UniProt P25343).
T1 sequence: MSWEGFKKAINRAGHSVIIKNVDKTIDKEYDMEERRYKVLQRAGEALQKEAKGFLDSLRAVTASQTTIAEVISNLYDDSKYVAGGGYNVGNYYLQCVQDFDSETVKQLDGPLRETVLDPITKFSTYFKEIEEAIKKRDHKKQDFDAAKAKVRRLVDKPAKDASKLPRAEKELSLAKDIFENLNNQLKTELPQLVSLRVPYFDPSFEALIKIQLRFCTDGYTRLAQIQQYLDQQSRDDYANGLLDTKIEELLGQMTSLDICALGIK
As to the kind of experiment: co-IP; lysates of pheromone-induced S. cerevisiae (galactose medium, 10 μg/ml pheromone, 2 hr); Rvs161p-FLAG held on anti-FLAG M2 affinity gel, 1 hr at 4°, 50 mM Tris pH 7.4, 150 mM NaCl, 0.5% Triton X-100; bound Fus2p-GFP detected by western blot with anti-GFP.

Results are given in words; binding and its absence hold for the method and conditions named. Binding seen in cells or lysates may run through a third protein. A result given as binding can be weak or reduced; the word gives no strength. Tags and fused reporters may be left off the sequences shown.

Take “Fus2p^1–670 (GFP-tagged C-terminal truncation) (from UniProt Q05670) (domain or fragment)”: the binding entry was “binds”.
